Test results: the supplement of paper PMC12819154, “High-throughput peptide-centric local stability assay extends protein–ligand identification to membrane proteins, tissues and bacteria” (Nature Structural & Molecular Biology, 2025)
Some of the results follow. Most entries show no effect beyond the scatter of the controls.

Chains of the proteins cited; added tags and fusions are not shown. Lines headed by an entry give the natural chain unless they say otherwise; changes in a name come on top.
UniProt Q5SWT3: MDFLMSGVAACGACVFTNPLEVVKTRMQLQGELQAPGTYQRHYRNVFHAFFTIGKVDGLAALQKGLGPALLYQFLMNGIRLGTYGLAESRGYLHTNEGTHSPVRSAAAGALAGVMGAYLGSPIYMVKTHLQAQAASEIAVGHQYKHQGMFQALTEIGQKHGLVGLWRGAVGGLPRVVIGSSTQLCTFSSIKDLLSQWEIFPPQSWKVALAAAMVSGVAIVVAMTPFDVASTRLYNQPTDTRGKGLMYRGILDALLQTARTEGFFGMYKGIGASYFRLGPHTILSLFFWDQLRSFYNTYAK
UniProt Q5U465: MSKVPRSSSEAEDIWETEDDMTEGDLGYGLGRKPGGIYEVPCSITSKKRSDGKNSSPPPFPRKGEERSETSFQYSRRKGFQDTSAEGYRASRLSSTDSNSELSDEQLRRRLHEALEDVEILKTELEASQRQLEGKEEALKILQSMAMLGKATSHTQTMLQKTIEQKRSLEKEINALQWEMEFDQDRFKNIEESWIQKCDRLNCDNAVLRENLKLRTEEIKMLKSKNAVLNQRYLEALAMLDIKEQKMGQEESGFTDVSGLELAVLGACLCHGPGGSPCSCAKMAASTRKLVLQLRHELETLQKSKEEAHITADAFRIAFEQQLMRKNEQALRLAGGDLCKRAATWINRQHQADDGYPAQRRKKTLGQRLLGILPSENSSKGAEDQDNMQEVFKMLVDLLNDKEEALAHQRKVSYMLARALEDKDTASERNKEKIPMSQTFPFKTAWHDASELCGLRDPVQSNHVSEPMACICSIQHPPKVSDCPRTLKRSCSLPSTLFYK
UniProt Q5SYH2: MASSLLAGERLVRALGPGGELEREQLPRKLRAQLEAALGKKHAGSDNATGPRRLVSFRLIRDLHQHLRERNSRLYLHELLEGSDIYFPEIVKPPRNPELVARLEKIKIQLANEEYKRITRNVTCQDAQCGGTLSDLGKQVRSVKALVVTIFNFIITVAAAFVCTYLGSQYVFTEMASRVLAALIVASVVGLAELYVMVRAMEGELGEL
UniProt Q5SUC9: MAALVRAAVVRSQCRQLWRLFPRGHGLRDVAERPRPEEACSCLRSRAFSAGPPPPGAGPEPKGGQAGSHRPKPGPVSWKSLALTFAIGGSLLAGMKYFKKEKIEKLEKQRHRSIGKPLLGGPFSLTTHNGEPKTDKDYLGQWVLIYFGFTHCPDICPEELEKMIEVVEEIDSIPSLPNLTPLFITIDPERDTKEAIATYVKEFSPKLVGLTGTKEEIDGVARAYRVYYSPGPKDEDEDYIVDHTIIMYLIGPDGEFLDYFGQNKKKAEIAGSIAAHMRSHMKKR
UniProt Q61234: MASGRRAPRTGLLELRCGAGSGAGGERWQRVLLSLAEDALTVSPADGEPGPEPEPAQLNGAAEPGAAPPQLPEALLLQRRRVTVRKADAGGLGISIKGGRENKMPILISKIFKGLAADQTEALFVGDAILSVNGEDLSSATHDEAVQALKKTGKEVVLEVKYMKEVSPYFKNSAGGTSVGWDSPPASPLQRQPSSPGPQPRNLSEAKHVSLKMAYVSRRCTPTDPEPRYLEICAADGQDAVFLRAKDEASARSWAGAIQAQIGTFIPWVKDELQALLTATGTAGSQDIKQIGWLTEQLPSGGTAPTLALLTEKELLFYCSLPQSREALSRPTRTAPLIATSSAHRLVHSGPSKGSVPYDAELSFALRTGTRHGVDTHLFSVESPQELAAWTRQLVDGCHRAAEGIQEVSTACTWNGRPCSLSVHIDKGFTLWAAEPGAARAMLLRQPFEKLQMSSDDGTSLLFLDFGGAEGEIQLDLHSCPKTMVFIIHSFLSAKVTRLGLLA
UniProt Q61048: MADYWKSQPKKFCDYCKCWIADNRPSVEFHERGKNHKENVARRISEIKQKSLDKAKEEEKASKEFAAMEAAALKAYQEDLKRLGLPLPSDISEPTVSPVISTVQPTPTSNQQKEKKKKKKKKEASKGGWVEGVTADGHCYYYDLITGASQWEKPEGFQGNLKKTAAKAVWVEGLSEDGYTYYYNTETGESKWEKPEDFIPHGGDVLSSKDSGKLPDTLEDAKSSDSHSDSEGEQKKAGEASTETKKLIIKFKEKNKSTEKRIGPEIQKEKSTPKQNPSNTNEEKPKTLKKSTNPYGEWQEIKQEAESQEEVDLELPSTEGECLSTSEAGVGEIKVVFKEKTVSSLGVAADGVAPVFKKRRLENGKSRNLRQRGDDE
UniProt Q5SXA9: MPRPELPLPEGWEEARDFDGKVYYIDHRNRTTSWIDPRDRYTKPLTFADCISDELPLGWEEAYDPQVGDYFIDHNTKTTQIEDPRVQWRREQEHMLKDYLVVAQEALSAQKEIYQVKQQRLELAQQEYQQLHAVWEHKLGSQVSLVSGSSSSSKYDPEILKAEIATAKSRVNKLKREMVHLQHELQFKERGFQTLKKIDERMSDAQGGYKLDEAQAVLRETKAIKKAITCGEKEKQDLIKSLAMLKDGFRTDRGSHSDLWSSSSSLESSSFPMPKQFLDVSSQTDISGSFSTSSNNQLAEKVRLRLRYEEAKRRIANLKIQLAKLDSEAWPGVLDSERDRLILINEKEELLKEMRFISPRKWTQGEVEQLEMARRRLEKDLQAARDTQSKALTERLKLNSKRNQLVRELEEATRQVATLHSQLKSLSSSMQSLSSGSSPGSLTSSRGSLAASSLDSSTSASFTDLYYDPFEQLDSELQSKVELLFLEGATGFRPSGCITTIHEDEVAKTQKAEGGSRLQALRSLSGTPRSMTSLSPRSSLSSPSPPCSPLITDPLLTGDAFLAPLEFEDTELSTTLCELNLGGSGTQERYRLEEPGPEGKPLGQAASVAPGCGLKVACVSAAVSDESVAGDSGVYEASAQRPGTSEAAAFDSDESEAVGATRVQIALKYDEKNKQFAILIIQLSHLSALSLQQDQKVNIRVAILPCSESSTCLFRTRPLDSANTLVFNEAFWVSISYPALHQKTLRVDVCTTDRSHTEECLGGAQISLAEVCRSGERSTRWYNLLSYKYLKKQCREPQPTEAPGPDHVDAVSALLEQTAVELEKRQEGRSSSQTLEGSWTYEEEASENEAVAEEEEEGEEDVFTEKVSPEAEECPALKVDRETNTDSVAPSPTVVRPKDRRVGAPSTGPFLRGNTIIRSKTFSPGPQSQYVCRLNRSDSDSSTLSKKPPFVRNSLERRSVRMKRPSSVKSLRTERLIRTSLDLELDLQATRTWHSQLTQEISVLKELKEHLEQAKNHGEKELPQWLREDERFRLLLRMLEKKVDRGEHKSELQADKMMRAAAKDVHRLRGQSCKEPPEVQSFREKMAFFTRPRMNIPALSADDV
UniProt Q5U4F6: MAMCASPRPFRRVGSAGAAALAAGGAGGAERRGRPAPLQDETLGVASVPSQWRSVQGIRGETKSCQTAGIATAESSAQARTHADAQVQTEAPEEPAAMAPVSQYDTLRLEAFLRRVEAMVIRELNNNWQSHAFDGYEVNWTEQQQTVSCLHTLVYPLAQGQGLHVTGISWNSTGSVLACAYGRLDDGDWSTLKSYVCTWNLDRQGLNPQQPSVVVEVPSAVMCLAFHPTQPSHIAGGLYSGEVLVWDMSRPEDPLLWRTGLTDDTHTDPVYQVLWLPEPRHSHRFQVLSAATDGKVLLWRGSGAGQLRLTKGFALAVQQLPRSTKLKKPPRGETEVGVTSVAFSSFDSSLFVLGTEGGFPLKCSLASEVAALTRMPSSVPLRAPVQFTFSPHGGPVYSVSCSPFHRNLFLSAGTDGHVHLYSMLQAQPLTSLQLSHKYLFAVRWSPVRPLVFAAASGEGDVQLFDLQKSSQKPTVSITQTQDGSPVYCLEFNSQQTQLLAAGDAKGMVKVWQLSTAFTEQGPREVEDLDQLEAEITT
UniProt Q60700: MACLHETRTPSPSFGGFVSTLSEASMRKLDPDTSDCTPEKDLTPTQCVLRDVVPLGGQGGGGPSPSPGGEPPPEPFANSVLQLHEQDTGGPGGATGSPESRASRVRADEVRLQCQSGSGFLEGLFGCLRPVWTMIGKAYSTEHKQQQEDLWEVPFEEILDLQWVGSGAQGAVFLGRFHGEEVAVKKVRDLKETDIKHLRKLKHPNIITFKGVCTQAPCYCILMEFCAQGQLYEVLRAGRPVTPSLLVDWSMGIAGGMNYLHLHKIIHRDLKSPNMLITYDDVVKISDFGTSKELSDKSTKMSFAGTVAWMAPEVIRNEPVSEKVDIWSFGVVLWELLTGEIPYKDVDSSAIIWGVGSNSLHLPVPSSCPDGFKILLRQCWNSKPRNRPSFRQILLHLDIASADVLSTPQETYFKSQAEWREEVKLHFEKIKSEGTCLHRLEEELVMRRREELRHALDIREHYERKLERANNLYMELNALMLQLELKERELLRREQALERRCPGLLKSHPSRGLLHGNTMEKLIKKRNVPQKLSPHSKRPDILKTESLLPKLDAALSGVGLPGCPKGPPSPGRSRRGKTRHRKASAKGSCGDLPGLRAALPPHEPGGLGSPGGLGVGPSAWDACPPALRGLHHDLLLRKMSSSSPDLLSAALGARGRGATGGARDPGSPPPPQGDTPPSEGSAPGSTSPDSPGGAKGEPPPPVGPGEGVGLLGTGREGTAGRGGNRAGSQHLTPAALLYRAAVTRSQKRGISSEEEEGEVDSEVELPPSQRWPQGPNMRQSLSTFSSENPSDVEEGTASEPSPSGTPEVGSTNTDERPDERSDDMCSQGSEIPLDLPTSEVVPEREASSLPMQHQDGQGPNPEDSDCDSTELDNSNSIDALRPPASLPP
UniProt Q5SQF8: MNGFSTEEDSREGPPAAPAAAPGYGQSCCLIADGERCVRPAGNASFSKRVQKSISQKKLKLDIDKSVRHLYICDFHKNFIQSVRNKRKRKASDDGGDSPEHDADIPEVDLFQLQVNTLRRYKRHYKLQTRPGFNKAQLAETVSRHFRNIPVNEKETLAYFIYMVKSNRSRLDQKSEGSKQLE
UniProt Q5DW34: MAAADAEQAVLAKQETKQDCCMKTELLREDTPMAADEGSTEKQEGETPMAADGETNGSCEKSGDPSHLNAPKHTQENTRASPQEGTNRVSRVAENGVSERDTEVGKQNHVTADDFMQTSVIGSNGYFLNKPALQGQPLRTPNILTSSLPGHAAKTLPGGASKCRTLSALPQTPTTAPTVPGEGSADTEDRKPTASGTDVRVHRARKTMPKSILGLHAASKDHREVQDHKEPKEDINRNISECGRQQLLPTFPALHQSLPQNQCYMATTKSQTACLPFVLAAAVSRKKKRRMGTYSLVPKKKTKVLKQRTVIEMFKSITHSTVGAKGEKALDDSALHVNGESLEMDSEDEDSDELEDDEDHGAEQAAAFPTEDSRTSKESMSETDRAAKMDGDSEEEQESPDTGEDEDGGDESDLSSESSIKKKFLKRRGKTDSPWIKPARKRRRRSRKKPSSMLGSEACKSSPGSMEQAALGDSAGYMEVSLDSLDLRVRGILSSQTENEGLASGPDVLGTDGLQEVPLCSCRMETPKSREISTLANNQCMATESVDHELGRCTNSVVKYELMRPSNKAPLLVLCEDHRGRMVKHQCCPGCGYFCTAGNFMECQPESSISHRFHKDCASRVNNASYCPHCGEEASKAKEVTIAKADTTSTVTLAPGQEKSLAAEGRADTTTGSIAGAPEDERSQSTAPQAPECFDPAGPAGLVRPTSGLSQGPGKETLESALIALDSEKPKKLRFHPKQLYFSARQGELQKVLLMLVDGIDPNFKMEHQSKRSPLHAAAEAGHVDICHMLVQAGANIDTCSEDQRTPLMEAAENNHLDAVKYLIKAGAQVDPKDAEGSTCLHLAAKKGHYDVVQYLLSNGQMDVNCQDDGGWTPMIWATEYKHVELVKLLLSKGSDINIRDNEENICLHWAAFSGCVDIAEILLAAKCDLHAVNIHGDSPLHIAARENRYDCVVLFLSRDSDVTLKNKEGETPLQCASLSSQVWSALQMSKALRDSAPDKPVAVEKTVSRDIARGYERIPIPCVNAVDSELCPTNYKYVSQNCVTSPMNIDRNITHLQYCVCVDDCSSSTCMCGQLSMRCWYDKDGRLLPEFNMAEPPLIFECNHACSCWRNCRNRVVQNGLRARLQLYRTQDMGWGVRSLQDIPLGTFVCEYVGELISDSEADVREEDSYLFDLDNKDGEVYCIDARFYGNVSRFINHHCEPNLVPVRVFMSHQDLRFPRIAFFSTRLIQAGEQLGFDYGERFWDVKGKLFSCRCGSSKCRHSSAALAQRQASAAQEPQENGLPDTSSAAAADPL
UniProt Q5EBH1: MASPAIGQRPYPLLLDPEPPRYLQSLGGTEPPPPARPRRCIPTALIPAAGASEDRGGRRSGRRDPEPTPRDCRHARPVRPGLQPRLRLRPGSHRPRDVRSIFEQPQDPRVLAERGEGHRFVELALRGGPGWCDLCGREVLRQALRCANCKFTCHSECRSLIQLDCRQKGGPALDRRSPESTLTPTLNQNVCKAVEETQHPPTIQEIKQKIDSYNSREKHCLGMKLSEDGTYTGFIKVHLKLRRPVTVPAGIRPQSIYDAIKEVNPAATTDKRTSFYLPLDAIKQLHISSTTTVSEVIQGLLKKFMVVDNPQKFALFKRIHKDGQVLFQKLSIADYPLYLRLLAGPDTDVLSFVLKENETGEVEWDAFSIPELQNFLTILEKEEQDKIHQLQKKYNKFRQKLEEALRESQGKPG

The targets below were run with CN[C@@H]1C[C@H]2O[C@@](C)([C@@H]1OC)n1c3ccccc3c3c4c(c5c6ccccc6n2c5c31)C(=O)NC4 [staurosporine] (assay: log2 fold change of tryptic peptide abundance, ligand vs vehicle (limited proteolysis) (log2 ratio); higher = more trypsin-susceptible (destabilized)). Details: ligand concentration: 20 uM; sample: mouse liver crude lysate; replicate design: treated separately.

Row | Target | log2 fold change
1 | UniProt Q61035 (peptide sequence: IFSIVEQR, peptide start residue: 389) | -0.583
2 | UniProt Q5SWT3 (peptide sequence: LYNQPTDTR, peptide start residue: 233) | 0.303
3 | UniProt Q5U465 (peptide sequence: LLGILPSENSSK, peptide start residue: 369) | -0.236
4 | UniProt Q60668 (peptide sequence: MFIGGLSWDTTKK, peptide start residue: 99) | 0.184
5 | UniProt Q5SYH2 (peptide sequence: DLHQHLR, peptide start residue: 62) | -0.357
6 | UniProt Q5HZI9 (peptide sequence: MMDSEAHEK, peptide start residue: 1) | -0.322
7 | UniProt Q5HZI1 (peptide sequence: LEPAEVKK, peptide start residue: 435) | -0.201
8 | UniProt Q5MJS3 (peptide sequence: HNAEIAAFHLDR, peptide start residue: 260) | 0.223
9 | UniProt Q5SXY1 (peptide sequence: EVCDHQAEQLSR, peptide start residue: 631) | 0.419
10 | UniProt Q60973 (peptide sequence: YMPQNPHIIATK, peptide start residue: 131) | -0.504
11 | UniProt Q5FWH6 (peptide sequence: NTLWQELPAVR, peptide start residue: 401) | 0.317
12 | UniProt Q60838 (peptide sequence: VIYHLDEEETPYLVK, peptide start residue: 16) | -0.428
13 | UniProt Q5SUC9 (peptide sequence: LVGLTGTKEEIDGVAR, peptide start residue: 207) | -0.309
14 | UniProt Q60750 (peptide sequence: LQPDTTYIVR, peptide start residue: 507) | 0.161
15 | UniProt Q61234 (peptide sequence: QPSSPGPQPR, peptide start residue: 192) | -0.215
16 | UniProt Q61239 (peptide sequence: VLVEWLK, peptide start residue: 174) | 0.281
17 | UniProt Q5U4C1 (peptide sequence: VWSKPKEEPNSR, peptide start residue: 269) | -0.213
18 | UniProt Q61048 (peptide sequence: KSTNPYGEWQEIK, peptide start residue: 290) | 0.237

Row | Target | log2 fold change
19 | UniProt Q61189 (peptide sequence: GLGTGTLYIAESR, peptide start residue: 31) | -0.72
20 | UniProt Q61084 (peptide sequence: YHVSVHHK, peptide start residue: 279) | 0.953
21 | UniProt Q5I012 (peptide sequence: AAPPEVPKSPEK, peptide start residue: 858) | 0.469
22 | UniProt Q5SXA9 (peptide sequence: GQSCKEPPEVQSFR, peptide start residue: 1070) | -0.314
23 | UniProt Q5EE38 (peptide sequence: LLLLQACGLR, peptide start residue: 93) | 0.119
24 | UniProt Q61133 (peptide sequence: VLGPLIGVQVPQEKVER, peptide start residue: 118) | 0.139
25 | UniProt Q5SWD9 (peptide sequence: VVLSGHPFK, peptide start residue: 696) | 0.176
26 | UniProt Q5RJH2 (peptide sequence: TRPLLINLSK, peptide start residue: 16) | 0.113
27 | UniProt Q5U4F6 (peptide sequence: GFALAVQQLPR, peptide start residue: 312) | 0.755
28 | UniProt Q60700 (peptide sequence: GATGGAR, peptide start residue: 657) | 0.0265
29 | UniProt Q5SQF8 (peptide sequence: NFIQSVR, peptide start residue: 78) | 0.147
30 | UniProt Q61285 (peptide sequence: ILHSVHLYHIVQR, peptide start residue: 584) | 0.371
31 | UniProt Q5S006 (peptide sequence: LMIVGNTGSGK, peptide start residue: 1337) | 0.402
32 | UniProt Q5DW34 (peptide sequence: ASPQEGTNR, peptide start residue: 80) | -0.448
33 | UniProt Q5EBH1 (peptide sequence: EVNPAATTDKR, peptide start residue: 262) | 0.386
34 | UniProt Q61069 (peptide sequence: ACDYIQELR, peptide start residue: 247) | 0.149
35 | UniProt Q5DU57 (peptide sequence: IFFLFDHQLVSCKK, peptide start residue: 479) | -0.27

From entry 14 up to 15, as listed above:
Row | Target | log2 fold change
14 | UniProt Q60750 (peptide sequence: LQPDTTYIVR, peptide start residue: 507) | 0.161
15 | UniProt Q61234 (peptide sequence: QPSSPGPQPR, peptide start residue: 192) | -0.215
